# Laboratory results: PubChem BioAssay AID192 (DTP/NCI, 2004)
# The list does not hold the whole screen: it is rich in T/C values a quarter to a half above the control, in often repeated tests (any T/C) and in doses without a T/C. Further doses and runs are listed elsewhere. T/C: endpoint of the treated group in % of that of the vehicle group. Some entries give survivors of the animals treated and no T/C: the source files T/C as zero there, which appears to mark a toxic dose or a test without result, not a measured value. Some doses without a T/C left all or most animals alive at the check, yet need not have been tolerated: the source hardly ever lists a survival T/C far under the control, and the zero likely stands for such cases as well. Counts of survivors are from the toxicity check (mostly the fifth day) where no day follows; animals may have died later. Schedules are NCI's codes, taken here to give the interval after Q, in days (D) or hours (H), and the number of doses after X. Where survival is the endpoint, the PubChem record calls one and a half times the control and up active, and a quarter to a half above the control has no call in these data; cut-offs in other NCI protocols can differ. Some T/C values are followed by the survivors on the day toxicity was checked, most often the fifth; where none is given, no animal had died by that day.
# System: BDF1 mice, B16 melanoma ip, median survival T/C
# Assay: NCI In Vivo Anticancer Drug Screen. Data for tumor model B16 Melanoma (intraperitoneal) in B6D2F1 (BDF1) mice
# Details: T/C endpoint: median survival time, higher T/C = longer survival
# Method in brief: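 Transplantable tumor model; survival or tumor size measured; reported as T/C, treated over vehicle control.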
# [1] = dose: 100.0 mg/kg/injection, schedule: Q01DX009 (ip), vehicle: saline with Tween-80
# [2] = dose: 400.0 mg/kg/injection, schedule: Q01DX009 (ip), vehicle: Klucel (hydroxypropylcellulose) (HPC)
# [3] = dose: 6.0 mg/kg/injection, schedule: Q01DX009 (ip), vehicle: saline
# [4] = dose: 12.0 mg/kg/injection, schedule: Q01DX009 (ip), vehicle: saline
# [5] = dose: 200.0 mg/kg/injection, schedule: Q01DX009 (ip), vehicle: saline with Tween-80
# [6] = dose: 50.0 mg/kg/injection, schedule: Q01DX009 (ip), vehicle: Klucel (hydroxypropylcellulose) (HPC)
compound,measurement,setting,value
CCN1C(=O)CN(CCN2CC(=O)N(c3ccccc3)C2=S)C1=S,T/C,"dose: 75.0 mg/kg/injection, schedule: Q01DX009 (ip), vehicle: saline with Tween-80",135 % of control [9 of 10 alive]
same,T/C,[1],134 % of control
CCOC(=O)Nc1ccc([N+](=O)[O-])cc1,survivor count,[2],6 of 10
O=C(NCCCCCCCCCCNC(=O)N1CC1)N1CC1,T/C,"dose: 1.5 mg/kg/injection, schedule: Q01DX009 (ip), vehicle: saline",127 % of control
same,survivor count,[3],10 of 10
same,survivor count,[4],8 of 10
C=CCCCC[P+](c1ccccc1)(c1ccccc1)c1ccccc1,survivor count,[3],6 of 6
same,survivor count,[4],6 of 6
CCCCOCCN1CCN(CCCN2c3ccccc3Sc3ccc(C(F)(F)F)cc32)CC1,survivor count,"dose: 4.68 mg/kg/injection, schedule: Q04DX003 (ip), vehicle: saline",10 of 10
same,survivor count,"dose: 6.25 mg/kg/injection, schedule: Q01DX009 (ip), vehicle: saline",9 of 10
same,survivor count,"dose: 9.36 mg/kg/injection, schedule: Q04DX003 (ip), vehicle: saline",10 of 10
COc1cc(NC(=O)CN(CCCl)CCCl)cc(OC)c1OC,T/C,"dose: 25.0 mg/kg/injection, schedule: Q01DX009 (ip), vehicle: saline with Tween-80",127 % of control [8 of 10 alive]
same,T/C,[1],127 % of control
same,T/C,[5],139 % of control
same,survivor count,[5],10 of 10
same,survivor count,"dose: 400.0 mg/kg/injection, schedule: Q01DX009 (ip), vehicle: saline with Tween-80",5 of 10
CNCc1ccccc1C(O)c1ccc(Cl)cc1 (stereo not drawn),survivor count,"dose: 100.0 mg/kg/injection, schedule: Q01DX009 (ip), vehicle: Klucel (hydroxypropylcellulose) (HPC)",9 of 10
Oc1ccc(C2(c3ccc(O)cc3)CCCCC2)cc1,survivor count,"dose: 25.0 mg/kg/injection, schedule: Q01DX009 (ip), vehicle: acetone",7 of 10
same,survivor count,"dose: 100.0 mg/kg/injection, schedule: Q01DX009 (ip), vehicle: acetone",9 of 10
CCn1c(O)c(C=N)c(=O)n(CC)c1=O,survivor count,"dose: 75.0 mg/kg/injection, schedule: Q04DX003 (ip), vehicle: Klucel (hydroxypropylcellulose) (HPC)",10 of 10
same,survivor count,"dose: 300.0 mg/kg/injection, schedule: Q04DX003 (ip), vehicle: Klucel (hydroxypropylcellulose) (HPC)",9 of 10
C1CCN(CCC2CCNCC2)C1,survivor count,"dose: 100.0 mg/kg/injection, schedule: Q01DX009 (ip), vehicle: saline",10 of 10
CC1(C)NC(=O)C(/C=C/c2ccccc2)O1 (stereo not drawn),T/C,[6],128 % of control
same,survivor count,[2],2 of 10
C[CH2][Pb]([CH2]C)([CH2]C)[O]C(=O)COC,survivor count,"dose: 6.25 mg/kg/injection, schedule: Q01DX009 (ip), vehicle: Klucel (hydroxypropylcellulose) (HPC)",9 of 10
same,survivor count,"dose: 12.5 mg/kg/injection, schedule: Q01DX009 (ip), vehicle: Klucel (hydroxypropylcellulose) (HPC)",0 of 10
same,survivor count,"dose: 25.0 mg/kg/injection, schedule: Q01DX009 (ip), vehicle: Klucel (hydroxypropylcellulose) (HPC)",0 of 10
same,survivor count,[6],0 of 10
